Laboratory results published in paper PMC5725494, “Cell cycle-dependent phosphorylation regulates RECQL4 pathway choice and ubiquitination in DNA double-strand break repair”.
Positions count from the first letter of the chain named. These are yes or no findings as the source states them, for the method shown. In cells and extracts the contact can be indirect. Some results given as binding are weak or reduced against the parent protein; the word gives no strength. Sequences can lack the tags named with a protein.

Amino acid sequences for entries named in this document (tags omitted).
UniProt Q16531: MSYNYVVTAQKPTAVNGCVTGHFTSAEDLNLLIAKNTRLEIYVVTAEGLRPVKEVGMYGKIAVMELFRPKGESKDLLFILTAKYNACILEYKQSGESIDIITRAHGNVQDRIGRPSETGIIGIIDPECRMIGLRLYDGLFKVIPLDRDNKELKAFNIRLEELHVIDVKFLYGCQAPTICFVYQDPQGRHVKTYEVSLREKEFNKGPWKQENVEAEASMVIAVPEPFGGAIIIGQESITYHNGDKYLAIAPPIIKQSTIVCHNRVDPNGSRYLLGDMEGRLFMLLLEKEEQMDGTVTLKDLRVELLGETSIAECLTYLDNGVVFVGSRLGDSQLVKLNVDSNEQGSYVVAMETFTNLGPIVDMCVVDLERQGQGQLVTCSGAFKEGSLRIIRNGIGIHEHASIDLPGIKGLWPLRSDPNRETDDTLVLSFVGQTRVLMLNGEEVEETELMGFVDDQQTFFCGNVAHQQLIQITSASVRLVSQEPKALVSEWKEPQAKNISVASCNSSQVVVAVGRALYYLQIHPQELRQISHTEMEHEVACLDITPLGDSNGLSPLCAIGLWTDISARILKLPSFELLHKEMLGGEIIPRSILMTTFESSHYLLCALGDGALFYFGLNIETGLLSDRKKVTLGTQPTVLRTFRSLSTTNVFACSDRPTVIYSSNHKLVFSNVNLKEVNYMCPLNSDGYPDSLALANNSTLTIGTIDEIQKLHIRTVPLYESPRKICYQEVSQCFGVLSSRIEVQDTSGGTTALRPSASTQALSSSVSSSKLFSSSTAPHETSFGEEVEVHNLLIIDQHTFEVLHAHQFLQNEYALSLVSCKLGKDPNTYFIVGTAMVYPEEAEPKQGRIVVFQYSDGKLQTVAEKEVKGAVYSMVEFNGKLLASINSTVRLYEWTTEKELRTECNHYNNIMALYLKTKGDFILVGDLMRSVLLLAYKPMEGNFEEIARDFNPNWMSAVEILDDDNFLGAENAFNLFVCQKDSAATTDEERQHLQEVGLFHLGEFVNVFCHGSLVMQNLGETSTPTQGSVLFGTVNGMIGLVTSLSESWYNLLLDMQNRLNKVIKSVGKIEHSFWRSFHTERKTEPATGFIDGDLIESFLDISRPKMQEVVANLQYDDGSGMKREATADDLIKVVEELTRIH

How the values were obtained:
[1] = target: T1, 3×FLAG-tagged RECQL4 (wild type, full length) (human) (UniProt O94761); experiment: co-IP; M2 FLAG beads on lysate (2 mg protein) of HEK293T cells expressing 3×FLAG-tagged RECQL4, mutants or truncations, overnight at 4 °C; lysis buffer 2 with Benzonase; Western blotting of endogenous partners
T1 sequence: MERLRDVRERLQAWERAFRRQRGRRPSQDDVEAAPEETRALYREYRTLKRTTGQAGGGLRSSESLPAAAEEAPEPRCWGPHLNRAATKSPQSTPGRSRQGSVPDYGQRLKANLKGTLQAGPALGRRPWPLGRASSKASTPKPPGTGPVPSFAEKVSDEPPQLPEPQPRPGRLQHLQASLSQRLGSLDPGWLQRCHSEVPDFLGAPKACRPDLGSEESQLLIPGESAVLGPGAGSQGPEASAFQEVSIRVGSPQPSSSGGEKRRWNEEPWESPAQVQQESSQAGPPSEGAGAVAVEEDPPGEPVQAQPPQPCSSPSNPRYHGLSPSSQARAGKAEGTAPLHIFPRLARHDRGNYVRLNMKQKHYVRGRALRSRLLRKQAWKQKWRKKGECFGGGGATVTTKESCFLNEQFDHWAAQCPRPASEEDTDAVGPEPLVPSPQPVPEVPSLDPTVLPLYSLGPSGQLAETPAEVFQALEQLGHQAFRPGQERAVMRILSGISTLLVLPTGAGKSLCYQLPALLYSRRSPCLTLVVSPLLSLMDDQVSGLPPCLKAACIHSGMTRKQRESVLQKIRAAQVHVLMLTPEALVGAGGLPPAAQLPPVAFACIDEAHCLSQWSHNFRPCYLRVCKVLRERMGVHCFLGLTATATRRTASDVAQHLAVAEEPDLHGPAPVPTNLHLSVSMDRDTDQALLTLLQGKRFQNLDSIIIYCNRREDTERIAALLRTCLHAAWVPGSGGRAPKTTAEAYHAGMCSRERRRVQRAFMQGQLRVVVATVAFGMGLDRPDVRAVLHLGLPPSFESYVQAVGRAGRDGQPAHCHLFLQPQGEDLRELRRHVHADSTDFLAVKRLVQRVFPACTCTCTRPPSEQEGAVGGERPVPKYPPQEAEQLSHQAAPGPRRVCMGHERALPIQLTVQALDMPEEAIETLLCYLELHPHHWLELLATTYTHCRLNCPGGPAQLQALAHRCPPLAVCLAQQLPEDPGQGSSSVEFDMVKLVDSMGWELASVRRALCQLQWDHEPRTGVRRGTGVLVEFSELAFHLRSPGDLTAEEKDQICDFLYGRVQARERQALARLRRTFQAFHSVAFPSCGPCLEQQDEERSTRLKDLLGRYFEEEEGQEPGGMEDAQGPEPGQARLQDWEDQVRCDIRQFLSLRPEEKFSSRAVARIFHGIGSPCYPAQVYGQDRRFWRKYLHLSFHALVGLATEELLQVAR

[2] = target: T2, 3×FLAG-tagged RQ4-2D (RECQL4 Ser89Asp/Ser251Asp) (human) (UniProt O94761); experiment: as above
T2 sequence: T1 sequence with S89D, S251D

binding [1]: binds
binding [2]: binds
Substance: DDB1 (from UniProt Q16531 1-1140)
